Record: PubChem BioAssay AID1224828 (NIAID, 2016)
Here is one part, drawn at random, of about 17,000 reagents. In the full data, 762 (4.5%) got an active call. 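Active calls include both raised and lowered p65 entry, mostly lowered; wells with fewer than 50 cells lack a z-score.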 Raw values vary from plate to plate and are shown uncorrected.

Assay: 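Find genes required for NF-kappaB p65 moving into the nucleus after LPS in mouse macrophages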 (primary screen)
Cells: mouse RAW264.7 G9 macrophage reporter cells (GFP-p65, Tnf promoter-mCherry)
Knock-down reagent: siRNA pool against mouse genes, 100 nM
Time to read-out: 2 days siRNA transfection, then 40 min LPS before fixation
Conditions: LPS (Salmonella minnesota R595) at 10 ng/ml
Detection: 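Imaged p65 nuclear translocation ratio, normalised to the plate median, converted to robust z-scores and averaged across two replicates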
Direction: p65 translocation robust z-score: higher = more nuclear NF-kappaB p65 after LPS than the plate median; nuclear/cytoplasmic p65 ratio: higher = more nuclear NF-kappaB p65
Call rule: 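Called active when z exceeds 3.3 or falls under -1.56 (median of Tlr4 controls), giving activity score of at least 50; no calls for control wells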
Calls: active = hit (p65 shift raised or lowered); inactive = no clear change

| gene knocked down | PubChem SID | p65 translocation robust z-score | nuclear/cytoplasmic p65 ratio, rep 1 | nuclear/cytoplasmic p65 ratio, rep 2 | low cell count flag | call |
| --- | --- | --- | --- | --- | --- | --- |
| Tbx1 (T-box 1) | SID315469593 | 0.2 | 1.5 | 1.6 | enough cells to score | inactive |
| Clec4a3 (C-type lectin domain family 4, member a3) | SID315474681 | – | 1.06 | 1.33 | fewer than 50 cells per well; well left out of scoring | inactive |
| Pcbd1 | SID315466279 | 0.71 | 1.56 | 1.4 | enough cells to score | inactive |
| Pla2g2e (phospholipase A2, group IIE) | SID315470507 | 0.94 | 1.59 | 1.56 | enough cells to score | inactive |
| Pik3r4 (phosphoinositide-3-kinase regulatory subunit 4) | SID315475175 | -0.23 | 1.81 | 1.35 | enough cells to score | inactive |
| Tyw1 (tRNA-yW synthesizing protein 1 homolog (S. cerevisiae)) | SID315476254 | 0.33 | 1.64 | 1.57 | enough cells to score | inactive |
| Hs1bp3 (HCLS1 binding protein 3) | SID315471894 | – | 1.36 | 1.51 | fewer than 50 cells per well; well left out of scoring | inactive |
| Hmgn5 (high-mobility group nucleosome binding domain 5) | SID315470873 | 0.91 | 1.9 | 1.62 | enough cells to score | inactive |
| Tas2r102 (taste receptor, type 2, member 102) | SID315481852 | – | 1.08 | 1.3 | fewer than 50 cells per well; well left out of scoring | inactive |
| Spag5 (sperm associated antigen 5) | SID315471160 | – | 1.38 | 1.26 | fewer than 50 cells per well; well left out of scoring | inactive |
| Ezh1 (enhancer of zeste 1 polycomb repressive complex 2 subunit) | SID315466595 | -0.51 | 1.17 | 1.29 | enough cells to score | inactive |
| Tktl2 (transketolase-like 2) | SID315474968 | – | 1.37 | 1.61 | fewer than 50 cells per well; well left out of scoring | inactive |
| 1700012B09Rik (RIKEN cDNA 1700012B09 gene) | SID315473785 | -0.58 | 1.32 | 1.14 | enough cells to score | inactive |
| Syn2 (synapsin II) | SID315469549 | 2.33 | 1.76 | 1.36 | enough cells to score | inactive |
| Prpf39 (pre-mRNA processing factor 39) | SID315481463 | -0.93 | 1.26 | 1.11 | enough cells to score | inactive |
| Or5ac21 (olfactory receptor family 5 subfamily AC member 21) | SID315480156 | 0.1 | 1.57 | 1.48 | enough cells to score | inactive |
| Or51h5 (olfactory receptor family 51 subfamily H member 5) | SID315480689 | – | 1.36 | 1.28 | fewer than 50 cells per well; well left out of scoring | inactive |
| Ercc3 | SID315466552 | 0.1 | 1.47 | 1.39 | enough cells to score | inactive |
| Prss59 (serine protease 59) | SID315474739 | – | 1.14 | 1.08 | fewer than 50 cells per well; well left out of scoring | inactive |
| Rab13 (RAB13, member RAS oncogene family) | SID315473508 | 0.85 | 1.63 | 1.64 | enough cells to score | inactive |
| L3mbtl3 (L3MBTL3 histone methyl-lysine binding protein) | SID315479340 | 0.1 | 1.61 | 1.4 | enough cells to score | inactive |
| Gna12 (guanine nucleotide binding protein, alpha 12) | SID315466939 | 0.69 | 1.57 | 1.81 | enough cells to score | inactive |
| Cep95 (centrosomal protein 95) | SID315481244 | – | 1.27 | 1.02 | fewer than 50 cells per well; well left out of scoring | inactive |
| Slc22a7 | SID315476696 | -0.24 | 1.37 | 1.19 | enough cells to score | inactive |

Not a retest: an excerpt of the list.
| gene knocked down | PubChem SID | p65 translocation robust z-score | nuclear/cytoplasmic p65 ratio, rep 1 | nuclear/cytoplasmic p65 ratio, rep 2 | low cell count flag | call |
| --- | --- | --- | --- | --- | --- | --- |
| Or5ac21 (olfactory receptor family 5 subfamily AC member 21) | SID315480156 | 0.1 | 1.57 | 1.48 | enough cells to score | inactive |
| Or51h5 (olfactory receptor family 51 subfamily H member 5) | SID315480689 | – | 1.36 | 1.28 | fewer than 50 cells per well; well left out of scoring | inactive |
| Ercc3 | SID315466552 | 0.1 | 1.47 | 1.39 | enough cells to score | inactive |
